Test results taken from patent publication US20040018528A1, “Novel biomarkers of tyrosine kinase inhibitor exposure and activity in mammals” (Sugen, Inc., priority 2002, published 2004).
Results are given in words; binding and its absence hold for the method and conditions named. Some binding calls cover weakened binding; strength is not graded here.

Chains of the proteins cited; added tags and fusions are not shown. Lines headed by an entry give the natural chain unless they say otherwise; changes in a name come on top.
UniProt P15692: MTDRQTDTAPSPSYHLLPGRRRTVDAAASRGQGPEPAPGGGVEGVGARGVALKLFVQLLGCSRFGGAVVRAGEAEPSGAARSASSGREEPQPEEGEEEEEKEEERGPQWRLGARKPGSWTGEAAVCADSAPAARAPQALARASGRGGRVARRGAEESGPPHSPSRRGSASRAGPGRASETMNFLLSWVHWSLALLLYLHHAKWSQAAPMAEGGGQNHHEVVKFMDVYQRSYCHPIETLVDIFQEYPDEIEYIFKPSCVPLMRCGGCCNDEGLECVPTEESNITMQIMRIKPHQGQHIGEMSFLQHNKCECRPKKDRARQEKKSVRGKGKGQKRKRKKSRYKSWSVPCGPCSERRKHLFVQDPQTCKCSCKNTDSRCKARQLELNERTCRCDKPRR

Molecular target: T1, human placenta growth factor (PLGF) (human) (UniProt P49763)
T1 sequence: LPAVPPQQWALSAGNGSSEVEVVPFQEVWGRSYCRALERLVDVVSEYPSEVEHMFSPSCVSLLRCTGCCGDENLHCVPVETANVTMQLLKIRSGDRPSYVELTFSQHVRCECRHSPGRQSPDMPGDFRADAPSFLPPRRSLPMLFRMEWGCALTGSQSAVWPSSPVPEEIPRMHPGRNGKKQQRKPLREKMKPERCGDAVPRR
Test: hybrid sandwich ELISA on patient plasma (VEGF antibodies capture, PLGF antibodies detect)

binding: binds
Substance: human vascular endothelial growth factor (VEGF) (from UniProt P15692 181-395) (ligand)
